From the supplement of paper PMC10849652
The list shows a part of the results.

Protein sequences, listed by entry. Tags and fused reporters are not part of them. Lines headed by an entry give the natural chain unless they say otherwise; changes in a name come on top.
UniProt P12883, whole entry, looked up: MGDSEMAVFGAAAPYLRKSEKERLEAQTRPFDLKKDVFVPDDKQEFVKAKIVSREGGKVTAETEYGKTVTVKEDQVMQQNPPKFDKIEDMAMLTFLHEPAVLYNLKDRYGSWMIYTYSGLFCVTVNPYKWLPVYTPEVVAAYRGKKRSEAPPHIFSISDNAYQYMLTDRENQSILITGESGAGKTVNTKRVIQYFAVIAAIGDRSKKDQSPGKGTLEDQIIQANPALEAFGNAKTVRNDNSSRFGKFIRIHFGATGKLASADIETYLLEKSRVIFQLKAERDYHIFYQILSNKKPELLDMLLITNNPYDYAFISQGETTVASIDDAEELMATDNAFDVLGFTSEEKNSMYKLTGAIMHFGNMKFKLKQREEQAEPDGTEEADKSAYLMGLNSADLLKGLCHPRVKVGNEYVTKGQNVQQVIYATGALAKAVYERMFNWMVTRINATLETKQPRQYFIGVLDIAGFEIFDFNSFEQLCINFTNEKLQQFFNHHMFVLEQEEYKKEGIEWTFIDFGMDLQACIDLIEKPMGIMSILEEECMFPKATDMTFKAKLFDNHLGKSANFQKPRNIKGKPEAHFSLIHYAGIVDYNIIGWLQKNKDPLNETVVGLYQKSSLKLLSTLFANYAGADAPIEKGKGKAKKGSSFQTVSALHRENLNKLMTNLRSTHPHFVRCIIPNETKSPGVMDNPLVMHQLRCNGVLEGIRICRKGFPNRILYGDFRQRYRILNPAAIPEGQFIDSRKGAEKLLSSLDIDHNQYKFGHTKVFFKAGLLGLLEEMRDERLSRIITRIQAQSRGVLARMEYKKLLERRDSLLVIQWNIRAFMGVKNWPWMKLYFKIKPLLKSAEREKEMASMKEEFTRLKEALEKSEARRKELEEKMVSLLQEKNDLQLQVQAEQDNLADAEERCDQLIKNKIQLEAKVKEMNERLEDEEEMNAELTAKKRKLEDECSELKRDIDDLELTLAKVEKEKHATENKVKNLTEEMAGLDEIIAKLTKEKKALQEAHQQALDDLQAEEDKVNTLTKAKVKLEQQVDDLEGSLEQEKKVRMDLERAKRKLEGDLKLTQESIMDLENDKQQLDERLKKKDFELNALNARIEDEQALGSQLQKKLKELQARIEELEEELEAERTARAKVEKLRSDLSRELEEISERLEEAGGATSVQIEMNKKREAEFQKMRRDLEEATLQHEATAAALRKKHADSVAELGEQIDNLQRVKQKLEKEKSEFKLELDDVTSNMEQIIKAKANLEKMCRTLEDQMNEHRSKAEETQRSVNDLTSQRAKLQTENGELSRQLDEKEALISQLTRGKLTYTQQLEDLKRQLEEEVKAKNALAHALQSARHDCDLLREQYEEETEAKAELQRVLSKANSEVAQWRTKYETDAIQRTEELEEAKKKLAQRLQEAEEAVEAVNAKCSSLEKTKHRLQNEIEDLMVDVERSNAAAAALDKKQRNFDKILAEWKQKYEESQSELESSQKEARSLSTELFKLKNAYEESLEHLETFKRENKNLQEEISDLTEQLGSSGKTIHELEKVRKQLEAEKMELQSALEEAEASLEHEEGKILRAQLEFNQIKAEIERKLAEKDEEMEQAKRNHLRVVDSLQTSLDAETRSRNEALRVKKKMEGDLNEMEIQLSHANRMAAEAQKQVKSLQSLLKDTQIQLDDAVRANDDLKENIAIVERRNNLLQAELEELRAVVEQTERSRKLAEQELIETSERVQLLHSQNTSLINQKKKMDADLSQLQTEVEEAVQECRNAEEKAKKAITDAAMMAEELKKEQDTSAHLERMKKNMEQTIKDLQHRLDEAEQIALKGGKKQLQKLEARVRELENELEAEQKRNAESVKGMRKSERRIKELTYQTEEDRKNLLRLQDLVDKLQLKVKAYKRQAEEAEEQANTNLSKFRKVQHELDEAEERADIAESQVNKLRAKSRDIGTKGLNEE
UniProt Q15788: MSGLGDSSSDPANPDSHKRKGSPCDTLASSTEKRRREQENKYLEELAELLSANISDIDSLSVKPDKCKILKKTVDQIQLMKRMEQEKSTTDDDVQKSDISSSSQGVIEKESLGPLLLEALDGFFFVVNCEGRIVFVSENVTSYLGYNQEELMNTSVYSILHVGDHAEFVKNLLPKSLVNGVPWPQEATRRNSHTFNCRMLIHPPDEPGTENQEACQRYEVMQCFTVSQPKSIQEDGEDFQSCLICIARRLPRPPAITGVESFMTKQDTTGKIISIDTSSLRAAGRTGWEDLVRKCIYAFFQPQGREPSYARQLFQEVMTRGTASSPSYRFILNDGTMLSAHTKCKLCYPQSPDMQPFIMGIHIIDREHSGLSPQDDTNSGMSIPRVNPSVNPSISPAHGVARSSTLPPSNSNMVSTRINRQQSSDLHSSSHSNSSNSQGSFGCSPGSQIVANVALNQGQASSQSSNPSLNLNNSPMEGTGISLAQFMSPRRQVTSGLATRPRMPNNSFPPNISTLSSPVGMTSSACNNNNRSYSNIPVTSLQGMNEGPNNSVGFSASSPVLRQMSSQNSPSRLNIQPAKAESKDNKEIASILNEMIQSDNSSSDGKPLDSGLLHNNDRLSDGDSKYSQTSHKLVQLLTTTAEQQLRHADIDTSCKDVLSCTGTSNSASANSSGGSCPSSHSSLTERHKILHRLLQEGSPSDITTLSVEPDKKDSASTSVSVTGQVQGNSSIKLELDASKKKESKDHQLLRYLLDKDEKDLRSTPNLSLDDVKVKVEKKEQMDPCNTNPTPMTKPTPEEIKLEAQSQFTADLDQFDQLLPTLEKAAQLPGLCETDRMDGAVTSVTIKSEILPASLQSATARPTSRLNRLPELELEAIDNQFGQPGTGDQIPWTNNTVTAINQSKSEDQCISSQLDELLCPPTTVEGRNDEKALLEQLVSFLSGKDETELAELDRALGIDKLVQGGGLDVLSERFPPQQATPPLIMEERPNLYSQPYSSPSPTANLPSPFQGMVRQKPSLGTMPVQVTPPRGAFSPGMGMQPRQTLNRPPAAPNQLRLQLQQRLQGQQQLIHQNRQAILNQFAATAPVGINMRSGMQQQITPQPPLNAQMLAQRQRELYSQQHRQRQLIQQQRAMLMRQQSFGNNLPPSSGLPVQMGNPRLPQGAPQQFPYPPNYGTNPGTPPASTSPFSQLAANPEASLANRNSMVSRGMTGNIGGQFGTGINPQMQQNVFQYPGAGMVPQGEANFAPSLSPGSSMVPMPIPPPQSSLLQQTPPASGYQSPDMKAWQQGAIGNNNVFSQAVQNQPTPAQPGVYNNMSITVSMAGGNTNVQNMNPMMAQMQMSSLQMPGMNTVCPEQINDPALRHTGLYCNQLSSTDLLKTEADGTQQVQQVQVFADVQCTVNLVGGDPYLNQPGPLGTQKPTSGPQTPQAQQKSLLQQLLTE
UniProt Q6N069: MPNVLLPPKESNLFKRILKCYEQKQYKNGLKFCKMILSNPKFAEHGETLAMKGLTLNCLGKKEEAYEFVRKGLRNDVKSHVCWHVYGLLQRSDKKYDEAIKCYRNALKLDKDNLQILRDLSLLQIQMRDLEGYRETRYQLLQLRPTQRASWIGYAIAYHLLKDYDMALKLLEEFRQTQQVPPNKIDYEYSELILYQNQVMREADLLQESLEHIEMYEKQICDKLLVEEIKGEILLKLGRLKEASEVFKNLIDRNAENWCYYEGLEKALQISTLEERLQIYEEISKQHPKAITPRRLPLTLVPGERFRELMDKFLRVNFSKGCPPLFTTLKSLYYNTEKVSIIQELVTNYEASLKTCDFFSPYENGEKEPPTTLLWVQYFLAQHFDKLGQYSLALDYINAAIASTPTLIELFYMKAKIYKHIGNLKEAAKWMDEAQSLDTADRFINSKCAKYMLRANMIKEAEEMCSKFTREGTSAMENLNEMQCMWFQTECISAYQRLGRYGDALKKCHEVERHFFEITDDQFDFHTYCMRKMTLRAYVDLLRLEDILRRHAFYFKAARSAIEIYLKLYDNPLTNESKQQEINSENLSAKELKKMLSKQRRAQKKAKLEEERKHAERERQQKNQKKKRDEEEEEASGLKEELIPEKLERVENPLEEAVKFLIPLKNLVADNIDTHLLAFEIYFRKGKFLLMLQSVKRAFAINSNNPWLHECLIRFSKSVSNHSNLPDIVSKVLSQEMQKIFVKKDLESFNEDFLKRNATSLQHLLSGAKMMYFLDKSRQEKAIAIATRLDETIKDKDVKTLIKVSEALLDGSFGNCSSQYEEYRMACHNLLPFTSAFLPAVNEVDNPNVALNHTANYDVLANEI
UniProt Q96AH0: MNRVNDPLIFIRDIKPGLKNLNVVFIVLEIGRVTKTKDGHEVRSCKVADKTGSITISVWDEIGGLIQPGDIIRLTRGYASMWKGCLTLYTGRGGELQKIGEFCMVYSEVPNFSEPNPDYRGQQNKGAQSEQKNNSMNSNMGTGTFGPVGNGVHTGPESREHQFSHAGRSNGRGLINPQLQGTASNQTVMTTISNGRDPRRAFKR
UniProt B0I1T2: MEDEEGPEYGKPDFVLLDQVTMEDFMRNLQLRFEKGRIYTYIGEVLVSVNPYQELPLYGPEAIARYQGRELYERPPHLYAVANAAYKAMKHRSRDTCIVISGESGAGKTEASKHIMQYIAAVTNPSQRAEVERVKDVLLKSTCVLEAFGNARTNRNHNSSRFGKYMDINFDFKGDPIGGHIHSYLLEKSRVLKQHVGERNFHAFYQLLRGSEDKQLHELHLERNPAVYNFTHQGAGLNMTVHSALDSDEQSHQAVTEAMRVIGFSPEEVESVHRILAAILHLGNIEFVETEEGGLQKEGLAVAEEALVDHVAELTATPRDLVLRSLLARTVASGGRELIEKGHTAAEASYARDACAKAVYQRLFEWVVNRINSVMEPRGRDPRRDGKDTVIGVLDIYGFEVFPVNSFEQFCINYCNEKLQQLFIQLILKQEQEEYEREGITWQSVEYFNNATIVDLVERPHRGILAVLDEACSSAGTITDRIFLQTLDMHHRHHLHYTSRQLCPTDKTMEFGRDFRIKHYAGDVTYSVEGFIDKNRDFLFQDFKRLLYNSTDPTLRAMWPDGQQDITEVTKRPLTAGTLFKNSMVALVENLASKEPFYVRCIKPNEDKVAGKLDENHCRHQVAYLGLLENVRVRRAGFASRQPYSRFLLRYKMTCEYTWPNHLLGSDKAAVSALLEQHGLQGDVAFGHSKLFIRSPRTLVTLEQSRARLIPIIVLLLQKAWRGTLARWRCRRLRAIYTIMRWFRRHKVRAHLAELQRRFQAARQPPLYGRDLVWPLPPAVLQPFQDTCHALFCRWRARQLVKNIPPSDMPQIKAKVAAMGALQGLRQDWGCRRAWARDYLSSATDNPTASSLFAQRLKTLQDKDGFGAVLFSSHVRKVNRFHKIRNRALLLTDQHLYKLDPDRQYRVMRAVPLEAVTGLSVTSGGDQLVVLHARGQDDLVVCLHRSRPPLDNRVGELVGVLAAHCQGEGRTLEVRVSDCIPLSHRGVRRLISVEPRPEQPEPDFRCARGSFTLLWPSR
UniProt Q9NPC7: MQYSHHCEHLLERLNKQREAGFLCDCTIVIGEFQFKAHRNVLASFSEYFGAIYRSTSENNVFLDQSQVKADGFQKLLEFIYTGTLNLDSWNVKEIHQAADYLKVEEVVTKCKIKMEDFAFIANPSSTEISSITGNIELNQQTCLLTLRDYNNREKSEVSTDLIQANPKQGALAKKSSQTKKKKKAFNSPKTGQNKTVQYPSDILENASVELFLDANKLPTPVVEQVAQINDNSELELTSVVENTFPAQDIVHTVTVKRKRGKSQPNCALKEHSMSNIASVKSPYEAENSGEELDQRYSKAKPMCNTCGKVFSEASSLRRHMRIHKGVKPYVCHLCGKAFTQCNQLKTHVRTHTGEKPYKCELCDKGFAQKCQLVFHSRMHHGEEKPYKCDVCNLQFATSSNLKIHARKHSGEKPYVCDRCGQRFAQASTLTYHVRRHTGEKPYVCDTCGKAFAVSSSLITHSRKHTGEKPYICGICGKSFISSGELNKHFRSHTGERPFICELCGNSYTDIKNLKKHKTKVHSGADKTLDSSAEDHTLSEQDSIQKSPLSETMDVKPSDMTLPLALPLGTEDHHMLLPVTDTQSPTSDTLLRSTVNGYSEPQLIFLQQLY
UniProt Q15742: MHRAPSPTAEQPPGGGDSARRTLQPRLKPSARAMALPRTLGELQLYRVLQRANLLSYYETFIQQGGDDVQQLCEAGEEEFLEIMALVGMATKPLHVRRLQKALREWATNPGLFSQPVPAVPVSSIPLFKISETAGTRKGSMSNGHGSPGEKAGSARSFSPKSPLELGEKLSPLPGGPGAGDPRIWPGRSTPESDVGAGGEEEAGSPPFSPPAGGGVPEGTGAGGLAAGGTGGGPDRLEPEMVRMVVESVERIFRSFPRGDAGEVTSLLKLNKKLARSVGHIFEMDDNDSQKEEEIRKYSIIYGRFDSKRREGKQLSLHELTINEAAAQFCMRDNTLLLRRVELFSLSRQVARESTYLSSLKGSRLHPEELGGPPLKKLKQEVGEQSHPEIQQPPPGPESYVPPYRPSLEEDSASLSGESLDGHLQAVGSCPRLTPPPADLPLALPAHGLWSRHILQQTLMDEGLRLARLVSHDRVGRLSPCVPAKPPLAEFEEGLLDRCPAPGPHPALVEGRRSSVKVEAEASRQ

What was measured:
Assay in all cases: log2 fold change, soluble protein after heating vs DMSO (PISA); higher = thermal stabilisation; K562 lysate, 10 uM; active = over 0.2 and 3.5 SD of the protein, either way, in both replicates (recomputed)
[1] = compound: CN1CC[C@H](c2c(O)cc(O)c3c(=O)cc(-c4ccccc4Cl)oc23)[C@H](O)C1 [alvocidib]
How it was run: (§1)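 To prepare the extract, K562 pellets were dounce-homogenised in PBS pH 7.4 with 1 mM MgCl2, giving crude material at 1 mg/mL protein. This was treated with 10 μM compound for 30 min, then heated in aliquots for 3 min over 48°C-58°C before pooling and addition of NP-40 to 0.5% at 4°C. Centrifugation at 21,000xg for 90 min left soluble protein in the supernatant, which TMTpro 16plex LC-MS/MS quantified with equalised channel sums. Results are log-two fold changes in thermal stability compared with solvent controls, from duplicates.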

[2] = compound: CNC(=O)c1ccc(Nc2ncc(C(F)(F)F)c(NCc3nccnc3N(C)S(C)(=O)=O)n2)cc1 [defactinib]
How it was run: as §1

[3] = compound: COC(=O)N[C@@H](C)CNc1nccc(-c2cn(C(C)C)nc2-c2cc(Cl)cc(NS(C)(=O)=O)c2F)n1 [encorafenib]
How it was run: as §1

[4] = compound: COC(=O)[C@H](CCSC)NC(=O)C1=C(C=C(C=C1)NC[C@H](CS)N)C2=CC=CC=C2
How it was run: as §1

[5] = compound: COc1cc(Nc2ncc3c(n2)-c2ccc(Cl)cc2C(c2c(F)cccc2OC)=NC3)ccc1C(=O)O [alisertib]
How it was run: as §1

[6] = compound: COc1cc2nc(-c3cc(F)ccc3O)nc(N[C@@H]3CNC[C@H]3C(C)(C)O)c2cc1OC
How it was run: as §1

[7] = compound: COc1cc2ncnc(Nc3ccc(F)c(Cl)c3)c2cc1OCCCN1CCOCC1 [gefitinib]
How it was run: as §1

[8] = compound: CS(=O)(=O)CCNCc1ccc(-c2ccc3ncnc(Nc4ccc(OCc5cccc(F)c5)c(Cl)c4)c3c2)o1 [lapatinib]
How it was run: as §1

[9] = compound: CS(=O)(=O)N1CCN(Cc2cc3nc(-c4cccc5[nH]ncc45)nc(N4CCOCC4)c3s2)CC1 [pictilisib]
How it was run: as §1

[10] = compound: C[C@@H](Oc1cc(-c2cnn(C3CCNCC3)c2)cnc1N)c1c(Cl)ccc(F)c1Cl [crizotinib]
How it was run: as §1

[11] = compound: C[C@H](C1=CC=C(C=C1)C(=O)NC2=C3C=CNC3=NC=C2)N
How it was run: as §1

[12] = compound: Cc1cc(Nc2cc(CN3CCOCC3)c3nc(C)c(Cc4ccc(Cl)cc4F)n3n2)n[nH]1 [gandotinib]
How it was run: as §1

[13] = compound: Cc1cc(Nc2cc(N3CCN(C)CC3)nc(Sc3ccc(NC(=O)C4CC4)cc3)n2)n[nH]1 [tozasertib]
How it was run: as §1

[14] = compound: Cc1ccc(-n2nc(C(C)(C)C)cc2NC(=O)Nc2ccc(OCCN3CCOCC3)c3ccccc23)cc1 [doramapimod]
How it was run: as §1

[15] = compound: Cc1ccc(NC(=O)c2ccc(CN3CC[C@H](N(C)C)C3)c(C(F)(F)F)c2)cc1Nc1nccc(-c2cncnc2)n1 [bafetinib]
How it was run: as §1

[16] = compound: Cc1cccc(CC(=O)N2CCc3c2ccc(-c2cn(C)c4ncnc(N)c24)c3F)n1
How it was run: as §1

[17] = compound: CNC(=O)C1=CC=CC=C1NC2=NC(=NC=C2Cl)NC3=C(C=C(C=C3)N4CCOCC4)OC
How it was run: as §1

[18] = compound: CNc1nc(-c2ccc3c(N)n[nH]c3c2)cc(N2C[C@@H](C(=O)NC3CCCCC3)CC[C@H]2C)n1
How it was run: as §1

[19] = compound: C[C@H](Nc1ncnc2nc[nH]c12)c1cc2cccc(Cl)c2c(=O)n1-c1ccccc1 [duvelisib]
How it was run: as §1

[20] = compound: CN1CCc2c(c3ccccc3n2Cc2ccc(C(=O)NO)cc2)C1 [Tubastatin A]
How it was run: as §1

Measured: log2 fold change

MYLK (UniProt Q15746)
inactive: [1] 0.097 | [2] 0.128 | [3] 0.154 | [4] -0.008 | [5] -0.001 | [6] -0.109 | [7] 0.071 | [8] -0.006 | [9] 0.015 | [10] 0.082 | [11] -0.181 | [12] 0.033 | [13] 0.114 | [16] -0.047
active: [14] 0.611 | [15] 0.712

NAP1L4 (UniProt C9JZI7)
inactive: [17] 0.088 | [18] 0.019 | [6] 0.038 | [8] 0.225 | [19] 0.167

MYH7 (UniProt P12883)
inactive: [9] -1.97 | [15] -0.45

NAP1L1 (UniProt H0YHC3)
inactive: [6] -0.032 | [8] 0.047

NAA80 isoform 2 (UniProt Q93015)
inactive: [20] -0.111 | [17] -0.066 | [5] 0.061 | [7] -0.122

MYL12A (UniProt P19105)
inactive: [1] -0.098 | [17] 0.068 | [11] 0.066 | [12] 0.14 | [16] -0.025

NCOA1 isoform 2 (UniProt Q15788)
inactive: [1] -0.041 | [17] 0.052 | [2] 0.084 | [18] 0.02 | [6] 0.453 | [8] -0.088 | [11] -0.015 | [19] -0.037 | [12] -0.103 | [16] 0.005

MYOF (UniProt Q9NZM1)
inactive: [18] 0 | [19] -0.058

NAA16 (UniProt Q6N069)
inactive: [20] -0.097 | [2] 0.086 | [18] -0.05 | [3] 0.062 | [4] 0.169 | [5] 0.11 | [6] -0.03 | [7] 0.142 | [8] 0.048 | [9] -0.108 | [19] 0.029 | [13] -0.016 | [15] 0.022

NAP1L4 (UniProt C9J6D1)
inactive: [6] 0.078 | [8] -0.024

Two entries drawn at random from the list so far:
NAP1L4 (UniProt C9JZI7)
inactive: [17] 0.088 | [18] 0.019 | [6] 0.038 | [8] 0.225 | [19] 0.167

NAP1L1 (UniProt H0YHC3)
inactive: [6] -0.032 | [8] 0.047

Following part

N4BP3 (UniProt O15049)
inactive: [17] -0.141 | [5] 0.05 | [6] 0.056 | [7] -0.044 | [8] -0.065 | [9] -0.08 | [15] 0.013

NABP1 (UniProt Q96AH0)
inactive: [2] 0.121 | [3] -0.154 | [4] 0.096 | [5] 0.069 | [7] 0.031 | [13] -0.135

NCL (UniProt H7BY16)
inactive: [5] -0.048 | [7] -0.013 | [9] -0.117 | [15] 0.057

MYO1G (UniProt B0I1T2)
inactive: [1] 0.122 | [17] -0.079 | [18] -0.021 | [3] -0.084 | [4] 0.163 | [5] 0.167 | [6] -0.094 | [7] -0.035 | [8] -0.028 | [9] 0.206 | [10] 0.073 | [11] 0.42 | [19] 0.125 | [12] -0.212 | [13] 0 | [14] 0.066 | [15] 0.003 | [16] -0.253

MYNN (UniProt Q9NPC7)
inactive: [20] 0.055 | [17] 0.113 | [2] -0.098 | [18] 0.001 | [19] -0.124

NAB2 (UniProt Q15742)
inactive: [1] -0.005 | [17] 0.113 | [2] 0.029 | [18] -0.013 | [3] -0.02 | [4] 0.033 | [5] 0.003 | [7] -0.015 | [9] -0.033 | [10] 0.039 | [11] -0.003 | [19] -0.073 | [12] -0.035 | [13] 0.039 | [14] 0.078 | [15] 0.051 | [16] 0.009
